Here are results for 42 sequences from PMC7819943, “Rice protein-binding microarrays: a tool to detect cis-acting elements near promoter regions in rice”.

This is one part of the list.

The target in this assay is T1, OsSMF1 (Oryza sativa, UniProt Q6ZLB0 1-436).
T1 sequence: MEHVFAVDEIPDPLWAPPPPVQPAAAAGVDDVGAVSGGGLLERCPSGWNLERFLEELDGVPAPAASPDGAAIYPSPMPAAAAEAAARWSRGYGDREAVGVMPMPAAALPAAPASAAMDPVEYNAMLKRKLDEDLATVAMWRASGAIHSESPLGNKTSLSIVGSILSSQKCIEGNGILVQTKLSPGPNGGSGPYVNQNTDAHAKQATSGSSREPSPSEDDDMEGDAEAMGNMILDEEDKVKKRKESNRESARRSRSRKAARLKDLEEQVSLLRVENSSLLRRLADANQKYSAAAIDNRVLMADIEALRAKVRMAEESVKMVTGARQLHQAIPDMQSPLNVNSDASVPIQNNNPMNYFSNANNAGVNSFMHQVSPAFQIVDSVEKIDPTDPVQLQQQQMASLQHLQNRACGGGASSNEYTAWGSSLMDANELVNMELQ
The assay is described as follows: protein-binding microarray (RPBM); PBS, 2% BSA, 51.3 ng/ul salmon testes DNA, 50 uM zinc acetate, 200 nM TF, 25 C, 1 h; high values mean tight binding. The settings on record: protein: recombinant; tags: N-terminal polyhistidine and DsRed monomer fusion (pET32a); chain copies: 2; label: CyDye5-dUTP incorporated in the synthesized complementary strand; 3' TTTTT single-stranded linker to array surface; dsDNA, one strand shown. The method in brief:
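A custom Agilent array was converted to double-stranded form by primer extension with Cy5-dUTP and blocked with 2% BSA. Protein at 200 nM in PBS with 2% BSA, salmon testes DNA and 50 µM zinc acetate was applied for 1 h at 25 °C, followed by washing. The proteins were polyhistidine–DsRed N-terminal fusions of transcription factors, expressed in E. coli BL21-CodonPlus and Ni–NTA-purified. The binding signal is per-feature fluorescence intensity (arbitrary units) from an Axon 4000B scanner.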
For the sequence “TCCACCTCCGACCTCACCGTCACCGCCTTGCCGCGCACCGCGGAGTCACCTAGTGCAG”, the binding signal is 3380 fluorescence intensity (a.u.). Consider “CAAATTTACTGTCAGCTTTTCCATTGGTCTGCAGCTATGACGGAGTCACCTAGTGCAG”, for which the binding signal was 3640 fluorescence intensity (a.u.). For “GGTTCTTCAGCACCAACTTGATTTTCTACATCCGGTCTTGCGGAGTCACCTAGTGCAG”, the binding signal was 22200 fluorescence intensity (a.u.). In the case of “TTGAGATTACTTCCTTGTGACGGCCCGCAAATTCTAGTCTCGGAGTCACCTAGTGCAG” it was 3890 fluorescence intensity (a.u.); in that of “ACTCGGCGCGCGCGCGTGTGGCAGTCCAACCATCACCTCACGGAGTCACCTAGTGCAG”, 3640 fluorescence intensity (a.u.); in that of “AATGGCCCATCCTCTGCTGTCCCCGAGACATCGTGCCGGTCGGAGTCACCTAGTGCAG”, 3360 fluorescence intensity (a.u.). Consider “TATCAAAATTTATCTTGCCACGTTGGTTTAATATTTAACCCGGAGTCACCTAGTGCAG”, for which the binding signal was 9160 fluorescence intensity (a.u.). Regarding “TAACCATGGTCTTGCCTACGTGGCGTGCCACGTAGACGATCGGAGTCACCTAGTGCAG”, the binding signal is 34300 fluorescence intensity (a.u.). Turning to “CAAATTTATTTCATCGACTGCCACCGCCGTTCGATATCCACGGAGTCACCTAGTGCAG”, the binding signal is 4670 fluorescence intensity (a.u.). For “ATTTCATCCGTTCGCACAACAGATCAGGGTTTATATTACCCGGAGTCACCTAGTGCAG”, the binding signal is 15000 fluorescence intensity (a.u.).

On to “TAGTATCGAACAGGCAATGACATCAGGCTGGTGCTTCACGCGGAGTCACCTAGTGCAG”, for which the binding signal is 3680 fluorescence intensity (a.u.). The result for “TGCCAATGCACACGGCGCCGTGGCTGGATTGCAGGATTGGCGGAGTCACCTAGTGCAG” reads 22800 fluorescence intensity (a.u.); that for “GCTAACAGTGAGCTGAATCAGCAGCGGCTCCTGTCTCCTGCGGAGTCACCTAGTGCAG”, 4720 fluorescence intensity (a.u.). For the sequence “CTCGCACACAACTGCCAGGTGACGTCGCGGCAAACGTTTCCGGAGTCACCTAGTGCAG”, the binding signal was 3630 fluorescence intensity (a.u.). The result for “TCCTTTTCCATCACATCAACCTGTCATACACACACAACTTCGGAGTCACCTAGTGCAG” reads 4300 fluorescence intensity (a.u.). “CCACGTAACAGCTAACGGGGTCCGGCCACGTACAGGTACACGGAGTCACCTAGTGCAG”: the binding signal is 5650 fluorescence intensity (a.u.). On to “GGCATGGTTCTAACAAACCCACTAACTAATTCATAGTTTTCGGAGTCACCTAGTGCAG”, for which the binding signal was 14700 fluorescence intensity (a.u.). Turning to “AGAACAAGTCCTCATTGTTCTTGACACCCACCATGTGGCACGGAGTCACCTAGTGCAG”, the binding signal is 3200 fluorescence intensity (a.u.). Take “GTACGCTCTGGACACGGGGATCGATGCGTCTGGTGGGGTGCGGAGTCACCTAGTGCAG”: the binding signal is 3180 fluorescence intensity (a.u.).

On to “ACTTGGACATATGCAGGTACCTCTTTGTGTTCAAAACCTTCGGAGTCACCTAGTGCAG”, for which the binding signal is 26000 fluorescence intensity (a.u.). On to “TCACGAACTGTGTACCGGATGCCACGTCACACAGTTGTCTCGGAGTCACCTAGTGCAG”, for which the binding signal is 41200 fluorescence intensity (a.u.). With “CCTGGAGCCAAACCGTGCTTGCCGTGCGGCGTGGCAGTCACGGAGTCACCTAGTGCAG”, the binding signal was 4280 fluorescence intensity (a.u.). Consider “CAACCACCTCATCATCATCATTATAATCAAGATCATTACCCGGAGTCACCTAGTGCAG”, for which the binding signal is 4500 fluorescence intensity (a.u.). As to “CCCCTCGCGACCGCGACCGCGACGCGTGCACATGCCGCTGCGGAGTCACCTAGTGCAG”, the binding signal was 3160 fluorescence intensity (a.u.). For “TCCCCTAGCTAGAATTATTCACTTTTAGGCTTCTATTGTTCGGAGTCACCTAGTGCAG”, the binding signal is 16800 fluorescence intensity (a.u.).

For “CACTTTCAACCCATATCTACCGTCCGTCTCCATCTGACACCGGAGTCACCTAGTGCAG”, the binding signal was 3870 fluorescence intensity (a.u.). For the sequence “CTTTAATTCCTAAGGTGGAGTAGATGCTACACGCATAGATCGGAGTCACCTAGTGCAG”, the binding signal was 3550 fluorescence intensity (a.u.). In the case of “TATGAGAAGGTTCCGCATTACCTGTAAAGGACACCACCACCGGAGTCACCTAGTGCAG”, the binding signal is 4290 fluorescence intensity (a.u.).

As for “CGTGCGGGGTGATGAGATACTGCTGCACGTCATCCGCCCCCGGAGTCACCTAGTGCAG”, the binding signal is 17000 fluorescence intensity (a.u.). The result for “CAAATGCAGAAAAGATAATCTCCTTTCTCTCTCTATTAAACGGAGTCACCTAGTGCAG” reads 31100 fluorescence intensity (a.u.); that for “TTATATATCCCTGATAGCTGATTAGTTGGCACATCAGCATCGGAGTCACCTAGTGCAG”, 3210 fluorescence intensity (a.u.); that for “GCTAGCTGCCGGTATATGATACATCCACGTCAGAGTAAAGCGGAGTCACCTAGTGCAG”, 11900 fluorescence intensity (a.u.). For the sequence “ACTAAACAGATTTTCTTTAAAGTTTATGCAGAAAAGTTTCCGGAGTCACCTAGTGCAG”, the binding signal was 5060 fluorescence intensity (a.u.). With “CTCCTCTCGCTCCACCGCTTCGTCACGCAGGCCTCCGTCGCGGAGTCACCTAGTGCAG”, the binding signal was 4200 fluorescence intensity (a.u.). In the case of “CCGACGCTGTGGCAATCATTCGTCATACAGTAGTTGGCCACGGAGTCACCTAGTGCAG” it was 4090 fluorescence intensity (a.u.); in that of “CACTACTCATCAGCCCACGTTAACACGCGTTCTCCGGTGGCGGAGTCACCTAGTGCAG”, 3230 fluorescence intensity (a.u.); in that of “TGTATTTGTCTTTGTTAGCTGAATTTGTGGCCATGGATTTCGGAGTCACCTAGTGCAG”, 23000 fluorescence intensity (a.u.).

In the case of “ATCGAAGGCGAGAGCTCTTCTTCTTCCCCTCCTCCAAGCACGGAGTCACCTAGTGCAG”, the binding signal is 60500 fluorescence intensity (a.u.). For “CTGCCGCCGCCCGGGTCATCTGTTCCGCCCACCGCCGTCGCGGAGTCACCTAGTGCAG”, the binding signal is 3480 fluorescence intensity (a.u.). The result for “GTGACATGAGTAGATGCTCAACGCTAACACGCCATATGTCCGGAGTCACCTAGTGCAG” reads 4300 fluorescence intensity (a.u.); that for “GGTTAGGGTTTGGGGTGGGGAGGGGTGGATGCGCGTGGGCCGGAGTCACCTAGTGCAG”, 5350 fluorescence intensity (a.u.).

Take “CCTTAATTATAATCCATGTAGACGTCAACGTATGATAAAGCGGAGTCACCTAGTGCAG”: the binding signal was 3800 fluorescence intensity (a.u.).
